Assay results taken from article PMC10928986, “ARTC1-mediated VAPB ADP-ribosylation regulates calcium homeostasis” (Journal of Molecular Cell Biology, 2023).
No constants are given. Whether binding was seen depends on the method and setting. In cells and extracts the contact can be indirect. A yes stands for co-enrichment or nearness to the bait. Other partners may have been found. Where a sequence is shown, tags or fusion partners need not be part of it.

The chains behind the UniProt entries cited, without tags or fusion partners. Residues count along the entry.
UniProt P52961, residues 23-295: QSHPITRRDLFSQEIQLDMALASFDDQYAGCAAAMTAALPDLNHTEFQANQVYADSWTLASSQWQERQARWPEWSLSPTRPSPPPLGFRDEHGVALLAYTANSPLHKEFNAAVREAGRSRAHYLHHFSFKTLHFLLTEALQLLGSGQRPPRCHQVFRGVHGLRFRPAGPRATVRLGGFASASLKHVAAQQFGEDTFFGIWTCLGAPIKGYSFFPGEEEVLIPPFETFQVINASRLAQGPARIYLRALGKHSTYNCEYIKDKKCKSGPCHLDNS

Molecular target: T1, S-Flag-streptavidin binding protein (SFB)-tagged hARTC3 (human) (UniProt Q13508)
T1 sequence: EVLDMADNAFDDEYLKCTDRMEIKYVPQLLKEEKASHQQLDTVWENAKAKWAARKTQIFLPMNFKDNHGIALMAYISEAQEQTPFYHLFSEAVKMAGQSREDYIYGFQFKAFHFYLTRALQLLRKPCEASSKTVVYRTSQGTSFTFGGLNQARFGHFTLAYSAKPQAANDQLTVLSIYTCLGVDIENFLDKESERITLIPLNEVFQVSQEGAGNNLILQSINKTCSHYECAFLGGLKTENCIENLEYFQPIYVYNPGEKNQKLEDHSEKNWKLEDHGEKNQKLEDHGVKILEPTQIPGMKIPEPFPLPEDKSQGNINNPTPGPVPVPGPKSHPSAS
Experiment: affinity purification with mass spectrometry; tandem affinity purification (streptavidin agarose, biotin elution, S beads) from HEK-293T cells stably expressing SFB-hARTC1 or SFB-hARTC3; NETN buffers; whole lane analysed by MS

binding: binds
Substance: endogenous hARTC1 (from UniProt P52961 23-295) (enzyme)
